Reference: PMC4770587
Results are given in words; binding and its absence hold for the method and conditions named. Some results given as binding are weak or reduced against the parent protein; the word gives no strength.

The chains behind the UniProt entries cited, without tags or fusion partners. Where a name states a change or a piece, a line headed by the entry shows the natural chain unless it says otherwise. Residues count along the entry.
UniProt Q02413, residues 50-548: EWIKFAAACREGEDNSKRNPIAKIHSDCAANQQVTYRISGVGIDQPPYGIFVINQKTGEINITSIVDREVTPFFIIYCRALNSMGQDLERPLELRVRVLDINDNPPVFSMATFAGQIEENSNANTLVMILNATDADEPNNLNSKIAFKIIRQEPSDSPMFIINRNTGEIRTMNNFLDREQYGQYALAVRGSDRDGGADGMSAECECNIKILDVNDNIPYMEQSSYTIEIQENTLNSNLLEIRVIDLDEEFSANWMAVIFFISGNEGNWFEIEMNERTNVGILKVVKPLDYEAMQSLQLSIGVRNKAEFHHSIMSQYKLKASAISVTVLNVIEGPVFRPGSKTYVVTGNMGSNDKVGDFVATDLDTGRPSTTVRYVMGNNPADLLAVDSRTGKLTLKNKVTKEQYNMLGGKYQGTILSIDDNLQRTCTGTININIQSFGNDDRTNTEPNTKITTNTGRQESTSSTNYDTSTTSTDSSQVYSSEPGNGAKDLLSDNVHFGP
UniProt Q2G0L4, residues 36-1315: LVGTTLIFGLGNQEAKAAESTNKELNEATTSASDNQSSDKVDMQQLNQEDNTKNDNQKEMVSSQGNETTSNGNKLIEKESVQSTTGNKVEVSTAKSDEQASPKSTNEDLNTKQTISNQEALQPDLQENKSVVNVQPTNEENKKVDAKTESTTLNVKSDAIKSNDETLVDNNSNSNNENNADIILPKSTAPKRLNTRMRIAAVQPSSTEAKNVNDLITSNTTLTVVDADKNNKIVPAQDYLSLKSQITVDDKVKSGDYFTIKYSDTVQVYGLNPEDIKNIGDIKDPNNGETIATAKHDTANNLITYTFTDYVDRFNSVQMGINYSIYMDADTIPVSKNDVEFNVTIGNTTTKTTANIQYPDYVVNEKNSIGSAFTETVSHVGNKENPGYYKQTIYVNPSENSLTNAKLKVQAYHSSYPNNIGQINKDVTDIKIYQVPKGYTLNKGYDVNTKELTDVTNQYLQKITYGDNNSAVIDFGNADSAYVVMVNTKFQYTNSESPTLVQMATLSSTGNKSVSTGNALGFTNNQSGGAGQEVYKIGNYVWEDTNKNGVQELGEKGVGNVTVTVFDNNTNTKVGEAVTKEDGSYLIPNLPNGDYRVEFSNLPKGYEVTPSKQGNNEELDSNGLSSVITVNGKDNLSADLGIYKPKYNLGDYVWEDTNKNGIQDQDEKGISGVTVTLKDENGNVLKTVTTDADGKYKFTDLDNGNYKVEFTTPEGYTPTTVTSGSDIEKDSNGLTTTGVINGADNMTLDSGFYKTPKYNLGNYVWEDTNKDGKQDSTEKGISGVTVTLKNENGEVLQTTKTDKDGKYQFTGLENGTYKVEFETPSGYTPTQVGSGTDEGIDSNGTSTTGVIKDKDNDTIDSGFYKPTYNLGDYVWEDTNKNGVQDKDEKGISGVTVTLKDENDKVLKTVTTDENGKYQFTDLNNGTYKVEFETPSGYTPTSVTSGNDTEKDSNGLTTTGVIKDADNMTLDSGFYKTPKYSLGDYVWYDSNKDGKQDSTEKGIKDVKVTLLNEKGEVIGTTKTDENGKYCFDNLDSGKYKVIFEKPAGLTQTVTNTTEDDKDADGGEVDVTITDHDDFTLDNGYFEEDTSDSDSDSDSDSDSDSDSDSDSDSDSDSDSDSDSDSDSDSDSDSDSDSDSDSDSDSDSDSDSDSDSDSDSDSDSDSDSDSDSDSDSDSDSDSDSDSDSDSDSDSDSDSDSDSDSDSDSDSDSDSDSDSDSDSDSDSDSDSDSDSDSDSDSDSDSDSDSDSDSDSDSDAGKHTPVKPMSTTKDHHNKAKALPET

Assays:
[1] = target: recombinant human Dsg1-Fc chimera (human) (UniProt Q02413); test: adherence of bacteria to coated wells; Dsg1-Fc chimera coated (0.1 to 1 μg/well, carbonate buffer pH 9.6); S. aureus NCTC8325-4 or NCTC8325-4ΔsdrD in PBS added for 2 h at 37 °C; crystal violet, absorbance at 570 nm; only the target purified
[2] = target: recombinant human Dsg1-Fc chimera (human) (UniProt Q02413); test: adherence of bacteria to coated wells; S. aureus NCTC8325-4 pre-incubated for 30 min at room temperature with Dsg1-Fc (10 μg/ml), IgG1 Fc (10 μg/ml) or PBS, then added to wells coated with Dsg1-Fc (1 μg/well); crystal violet, absorbance at 570 nm; only the target purified

SdrD on S. aureus NCTC8325-4 cells (from UniProt Q2G0L4 36-1315)
binding [1]: binds | binding [2]: binds
